Results from one PubChem assay

The results are deposited in PubChem (AID912; NCATS, 2007).

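A cell-based FRET test of anthrax lethal toxin entry, tracked through the 460 nm emission signal; the cell line is not named here.
Each compound was tested as a concentration series from about 0.0005 to 40 µM.
The number is the fitted AC50 of the 460 nm signal alone; lower values mean a more potent effect. A falling signal goes with compounds filed as inhibitors or cytotoxic, a rising one with activators or fluorescent compounds (inferred from the filed classes).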

Values are in nM.
Common to all entries: measured here: 460 nm channel.
This is a side read-out of the assay, for part of the compounds, not drawn at random.
Potencies fitted to partial, single-point or poorly fitting curves are rough.
The first word of each remark tells which way the curve ran; it can be opposite to the aim of the assay.

| compound | AC50 (nM) | curve as filed |
|---|---|---|
| `CCOC(=O)CNC(=O)CSc1ncnc2c1cnn2-c1ccc(Cl)cc1` | 15.85 | falling, full curve, poor fit |
| `N#CC(=C(/N)Sc1ccccc1N)/C(C#N)=C(/N)Sc1ccccc1N` | 15848 | falling, partial curve, poor fit |
| `CCCCN1CCC(CCC(=O)c2cc(Cl)c(N)cc2OC)CC1` | 12589 | falling, single point |
| `COc1ccccc1OCCCn1cc(C(=O)c2ccco2)c2ccccc21` | 31622 | falling, single point |
| `COC(=O)c1ccc(C(=O)OC)c(NC(=O)c2ocnc2C)c1` | 6310 | falling, partial curve, poor fit |
| `Clc1ccc(-c2nnc(SCc3nc(-c4ccccc4)no3)o2)cc1` | 12589 | falling, partial curve |
| `COC(=O)c1ccccc1NC(=O)c1ccccc1SC` | 1000 | falling, full curve, poor fit |
| `CCc1ccccc1NC1=NCC(=O)N1Cc1ccc2c(c1)OCO2` | 5012 | falling, full curve |
| `Nc1c(C(=O)OCC2CCCO2)c2nc3ccccc3nc2n1Cc1cccs1` (stereo unspecified) | 63.1 | rising, full curve |
| `Cc1cccn2c(=O)c3cc(C(=O)NCCN4CCOCC4)c(=N)n(CCc4ccccc4)c3nc12` | 1585 | rising, single point |
| `Cc1cc(NC(=O)COC(=O)C(Nc2ccc(C(F)(F)F)cc2Cl)C(C)C)no1` (stereo unspecified) | 6310 | falling, partial curve |
| `Cc1ccc(-c2nnn(CC(=O)O)n2)cc1` | 3162 | rising, full curve, poor fit |
| `CC(C)C[C@H](NC(=O)[C@@H](NC(=O)N[C@@H](Cc1ccccc1)C(=O)O)[C@H]1CCN=C(N)N1)C(=O)N[C@H](C=O)Cc1ccccc1` | 31622 | falling, single point |
| `Cn1c2ccccc2c2c(C(=O)N3CCN(c4ccccc4)CC3)cn(C3CCCC3)c(=O)c21` | 1585 | rising, full curve, poor fit |
| `Cc1cccc(CNc2ccnc(-c3ccccc3C(F)(F)F)n2)c1` | 3162 | falling, single point |
| `Cc1ccccc1CSc1ncc(C#N)c(N)n1` | 5012 | falling, single point |
| `C/C(N)=C(/C#N)C(=O)CSc1nc2ccc(C)cc2[nH]1` | 3.162 | falling, full curve, poor fit |
| `Cc1sc2ncnc(OCC(=O)c3ccc(S(=O)(=O)N4CCCC4)cc3)c2c1C` | 10000 | rising, partial curve |
| `CCc1ccc2oc(-c3cc(N)ccc3Cl)nc2c1` | 6310 | falling, single point |
| `Nc1nc2c(nc(Br)n2[C@@H]2O[C@H]3COP(=O)(O)O[C@H]3[C@@H]2O)c(=O)[nH]1` | 12589 | falling, full curve |
| `CN(C)c1ccc(C2=NOC(CN3C(=O)c4ccccc4S3(=O)=O)C2)cc1` (stereo unspecified) | 50.12 | falling, full curve, poor fit |
| `CCc1sc(C(=O)NC2CCN(C)CC2)cc1Br` | 10000 | falling, single point |
| `O=C1CCCN1CCCNc1ncnc2c1cnn2-c1ccc(Cl)cc1` | 3162 | falling, full curve |
| `CCn1c(SCC(=O)N2CCCc3ccccc32)nc2ccccc2c1=O` | 10 | falling, full curve, poor fit |
| `Cn1c(=O)c2c(nc(SCc3ccccn3)n2C)n(C)c1=O` | 3.981 | rising, full curve, poor fit |
| `O=C(CSc1ncnc2c1oc1ccccc12)c1cccs1` | 3162 | falling, single point |
| `CC1(C)CC(=O)C2=C(C1)N(c1ccccc1)C(N)=C(C#N)C2c1cccnc1` (stereo unspecified) | 7943 | rising, partial curve, poor fit |
| `Cc1ccc(Cl)cc1NC(=O)Cn1cc2c(n1)CCCC2` | 12589 | falling, partial curve |

The first 3 entries again:

compound,AC50 (nM),curve as filed
CCOC(=O)CNC(=O)CSc1ncnc2c1cnn2-c1ccc(Cl)cc1,15.85,"falling, full curve, poor fit"
N#CC(=C(/N)Sc1ccccc1N)/C(C#N)=C(/N)Sc1ccccc1N,15848,"falling, partial curve, poor fit"
CCCCN1CCC(CCC(=O)c2cc(Cl)c(N)cc2OC)CC1,12589,"falling, single point"